From article PMC3199867, “Targeting surface nucleolin with multivalent HB-19 and related Nucant pseudopeptides results in distinct inhibitory mechanisms depending on the malignant tumor cell type” (BMC Cancer, 2011)
Results are given in words; binding and its absence hold for the method and conditions named. In cells and extracts the contact can be indirect. Some binding calls cover weakened binding; strength is not graded here. Blank lines part the entries; values can stand above or below the molecule they belong to.

Amino acid sequences for entries named in this document (tags omitted). Residues count along the entry.
UniProt P19338: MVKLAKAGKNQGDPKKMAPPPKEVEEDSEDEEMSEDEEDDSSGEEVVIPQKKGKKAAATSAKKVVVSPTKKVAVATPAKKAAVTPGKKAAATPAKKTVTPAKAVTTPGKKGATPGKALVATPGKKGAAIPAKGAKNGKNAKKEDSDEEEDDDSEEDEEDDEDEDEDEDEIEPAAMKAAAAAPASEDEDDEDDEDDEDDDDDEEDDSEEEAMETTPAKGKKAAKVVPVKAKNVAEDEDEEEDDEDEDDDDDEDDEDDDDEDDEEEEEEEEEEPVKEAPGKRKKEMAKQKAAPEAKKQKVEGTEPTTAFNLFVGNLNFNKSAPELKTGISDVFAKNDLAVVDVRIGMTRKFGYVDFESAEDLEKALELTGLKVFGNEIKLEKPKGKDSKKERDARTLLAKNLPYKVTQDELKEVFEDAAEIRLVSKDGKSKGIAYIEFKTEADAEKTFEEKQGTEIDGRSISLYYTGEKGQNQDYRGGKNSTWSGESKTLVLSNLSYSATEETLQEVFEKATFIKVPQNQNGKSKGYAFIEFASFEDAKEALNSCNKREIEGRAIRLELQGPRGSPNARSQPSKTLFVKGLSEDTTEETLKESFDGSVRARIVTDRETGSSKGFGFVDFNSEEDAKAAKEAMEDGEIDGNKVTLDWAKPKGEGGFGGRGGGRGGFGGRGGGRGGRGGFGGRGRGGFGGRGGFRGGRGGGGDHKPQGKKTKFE
UniProt Q07021, residues 74-282: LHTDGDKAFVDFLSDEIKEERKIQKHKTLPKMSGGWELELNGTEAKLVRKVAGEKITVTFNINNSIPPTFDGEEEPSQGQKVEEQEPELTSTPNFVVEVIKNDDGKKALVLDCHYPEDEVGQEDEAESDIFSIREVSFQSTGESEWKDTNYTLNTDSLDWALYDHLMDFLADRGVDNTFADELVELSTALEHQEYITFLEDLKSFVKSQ

Biological target: nucleolin (cell-surface expressed nucleolin), human (human (endogenous in HeLa, CEM, MDA-MB-231, HuT 78 and other human cell lines)) (UniProt P19338)
Experiment: pull-down; proteins recovered with surface nucleolin from CEM cells through HB-19/Btn and avidin-agarose (buffer E with 0.5% Triton X-100, washes in PBS/EDTA); bands of the SDS-PAGE identified by NH2-terminal microsequencing

binding: binds
Molecule: receptor for complement component C1q (gC1q-R) (from UniProt Q07021 74-282)

binding: binds
B1: signal recognition particle subunit SRP68 (protein, UniProt Q9UHB9 2-627)
chain: AAEKQVPGGGGGGGSGGGGGSGGGGSGGGRGAGGEENKENERPSAGSKANKEFGDSLSLEILQIIKESQQQHGLRHGDFQRYRGYCSRRQRRLRKTLNFKMGNRHKFTGKKVTEELLTDNRYLLLVLMDAERAWSYAMQLKQEANTEPRKRFHLLSRLRKAVKHAEELERLCESNRVDAKTKLEAQAYTAYLSGMLRFEHQEWKAAIEAFNKCKTIYEKLASAFTEEQAVLYNQRVEEISPNIRYCAYNIGDQSAINELMQMRLRSGGTEGLLAEKLEALITQTRAKQAATMSEVEWRGRTVPVKIDKVRIFLLGLADNEAAIVQAESEETKERLFESMLSECRDAIQVVREELKPDQKQRDYILEGEPGKVSNLQYLHSYLTYIKLSTAIKRNENMAKGLQRALLQQQPEDDSKRSPRPQDLIRLYDIILQNLVELLQLPGLEEDKAFQKEIGLKTLVFKAYRCFFIAQSYVLVKKWSEALVLYDRVLKYANEVNSDAGAFKNSLKDLPDVQELITQVRSEKCSLQAAAILDANDAHQTETSSSQVKDNKPLVERFETFCLDPSLVTKQANLVHFPPGFQPIPCKPLFFDLALNHVAFPPLEDKLEQKTKSGLTGYIKGIFGFRS

binding: binds
B2: signal recognition particle subunit SRP72 (protein, UniProt O76094 2-671)
chain: ASGGSGGVSVPALWSEVNRYGQNGDFTRALKTVNKILQINKDDVTALHCKVVCLIQNGSFKEALNVINTHTKVLANNSLSFEKAYCEYRLNRIENALKTIESANQQTDKLKELYGQVLYRLERYDECLAVYRDLVRNSQDDYDEERKTNLSAVVAAQSNWEKVVPENLGLQEGTHELCYNTACALIGQGQLNQAMKILQKAEDLCRRSLSEDTDGTEEDPQAELAIIHGQMAYILQLQGRTEEALQLYNQIIKLKPTDVGLLAVIANNIITINKDQNVFDSKKKVKLTNAEGVEFKLSKKQLQAIEFNKALLAMYTNQAEQCRKISASLQSQSPEHLLPVLIQAAQLCREKQHTKAIELLQEFSDQHPENAAEIKLTMAQLKISQGNISKACLILRSIEELKHKPGMVSALVTMYSHEEDIDSAIEVFTQAIQWYQNHQPKSPAHLSLIREAANFKLKYGRKKEAISDLQQLWKQNPKDIHTLAQLISAYSLVDPEKAKALSKHLPSSDSMSLKVDVEALENSAGATYIRKKGGKVTGDSQPKEQGQGDLKKKKKKKKGKLPKNYDPKVTPDPERWLPMRERSYYRGRKKGKKKDQIGKGTQGATAGASSELDASKTVSSPPTSPRPGSAATVSASTSNIIPPRHQKPAGAPATKKKQQQKKKKGGKGGW
